# Data from the supplement of paper PMC12823440, “Inhibitors supercharge kinase turnover through native proteolytic circuits” (Nature, 2025).
# Sequences of proteins named here, by UniProt entry; tags and fusion partners are left off. A change or cut given only in a name is not applied to a line headed by its entry.
# UniProt P51813: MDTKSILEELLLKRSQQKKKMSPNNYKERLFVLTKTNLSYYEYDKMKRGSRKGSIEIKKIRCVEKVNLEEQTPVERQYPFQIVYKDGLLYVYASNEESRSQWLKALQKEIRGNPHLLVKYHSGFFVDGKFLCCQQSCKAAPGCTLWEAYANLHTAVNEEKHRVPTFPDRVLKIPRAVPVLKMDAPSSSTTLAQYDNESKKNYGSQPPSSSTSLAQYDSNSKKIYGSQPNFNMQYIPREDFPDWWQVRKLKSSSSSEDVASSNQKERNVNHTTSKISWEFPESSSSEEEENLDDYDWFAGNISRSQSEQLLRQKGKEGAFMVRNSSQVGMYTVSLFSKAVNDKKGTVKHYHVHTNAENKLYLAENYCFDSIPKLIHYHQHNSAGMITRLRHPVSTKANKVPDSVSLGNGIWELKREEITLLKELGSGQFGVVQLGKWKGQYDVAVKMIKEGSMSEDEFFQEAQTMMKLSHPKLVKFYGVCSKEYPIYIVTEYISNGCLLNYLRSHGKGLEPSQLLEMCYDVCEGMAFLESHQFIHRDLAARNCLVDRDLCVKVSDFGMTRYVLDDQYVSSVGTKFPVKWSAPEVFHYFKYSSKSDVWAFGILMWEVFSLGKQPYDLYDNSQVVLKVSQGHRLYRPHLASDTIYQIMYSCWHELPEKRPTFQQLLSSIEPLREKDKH
# UniProt P15056, whole entry, looked up: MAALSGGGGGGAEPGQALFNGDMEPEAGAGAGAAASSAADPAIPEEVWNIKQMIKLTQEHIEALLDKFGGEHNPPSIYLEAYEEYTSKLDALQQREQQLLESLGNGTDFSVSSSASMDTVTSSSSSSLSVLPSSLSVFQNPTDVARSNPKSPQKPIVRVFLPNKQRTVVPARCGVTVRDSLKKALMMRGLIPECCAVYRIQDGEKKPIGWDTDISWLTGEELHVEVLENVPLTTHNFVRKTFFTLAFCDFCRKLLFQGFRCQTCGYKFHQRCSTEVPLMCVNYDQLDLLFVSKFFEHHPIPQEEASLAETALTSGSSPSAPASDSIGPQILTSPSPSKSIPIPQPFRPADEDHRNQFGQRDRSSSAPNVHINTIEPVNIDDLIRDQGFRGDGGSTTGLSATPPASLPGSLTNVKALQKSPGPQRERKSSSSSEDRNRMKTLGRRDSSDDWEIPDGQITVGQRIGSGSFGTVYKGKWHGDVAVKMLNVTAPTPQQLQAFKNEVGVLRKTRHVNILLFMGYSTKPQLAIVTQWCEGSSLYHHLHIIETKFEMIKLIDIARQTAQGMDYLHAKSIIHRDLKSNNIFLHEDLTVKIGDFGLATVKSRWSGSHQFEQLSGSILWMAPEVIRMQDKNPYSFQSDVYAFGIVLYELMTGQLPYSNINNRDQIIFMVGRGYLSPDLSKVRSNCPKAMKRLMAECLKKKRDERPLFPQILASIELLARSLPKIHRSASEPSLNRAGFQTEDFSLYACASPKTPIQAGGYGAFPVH
# Structures can show the parent of a compound that is named as a salt. The list shows a part of the results. Hit calls seldom repeat between salt and free forms of one compound.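 Kinases were expressed as nanoluciferase fusions in K562 cells and luminescence was read every 4 h between 2 and 18 h as percent of control, DMSO set to 100% and a positive control to 0%. A time point counts as decreased when the signal drops significantly (2 sigma). The hit call is the authors' own, does not follow from the count of time points alone, and its rule is not shown.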
# Target: BMX (UniProt P51813)
# Assay: number of time points (of 5) at which kinase-Nluc abundance scored as decreased, DMSO-normalised (count); higher = more persistent destabilization
# Conditions: K562; 2-18 h
row,Structure (SMILES),number of time points
1,Cc1noc(C)c1-c1ccc(-c2cc(C(N)=O)c(NC(N)=O)s2)c(O[C@H]2CCNC2)c1 (10 µM),0
2,Cc1c(CN2CCN(S(C)(=O)=O)CC2)sc2c(N3CCOCC3)nc(-c3cnc(N)nc3)nc12 (2.5 µM),3
3,CC(C)CN(CC(=O)N1CCN(CC(OCc2ccc3ccccc3c2)c2ccc(Cl)cc2Cl)CC1)CC(C)C (stereo not drawn) [LYN-1604 (dihydrochloride)] (2.5 µM),0
4,CC/C=C\C/C=C\C/C=C\CCCCCCCC(=O)O [α-Linolenic acid] (10 µM),0
5,Nc1ncnc2c1c(-c1ccc(Oc3ccccc3)cc1)nn2C1CCNCC1 [N-piperidine Ibrutinib (hydrochloride)] (10 µM),0
6,CC(C)NC(=O)N1CC[C@H](NC2=Nc3cc(F)ccc3N(CC(F)F)c3ccc(Cl)cc32)C1 (10 µM),0
7,O=C(Nc1cc(Oc2cc(F)c(NC(=O)C3(C(=O)Nc4ccc(F)cc4)CC3)cc2F)ccn1)C1CC1 [Altiratinib] (10 µM),0
8,COCCOc1ccc(-c2cn(-c3ccccc3)c3nc[nH]c(=O)c23)cc1 (10 µM),0
9,Cc1ccc2nc(NC(=O)CSc3nc4c(c(=O)n3-c3ccccc3)SCC4)sc2c1 (2 µM),0
10,C[C@]1(O)CCC[C@@H]1n1c(=O)c(C(F)F)cc2cnc(NC3CCN(S(C)(=O)=O)CC3)nc21 (10 µM),0
11,NC1(Cc2ccc(Cl)cc2)CCN(c2ncnc3[nH]ccc23)CC1 (10 µM),0
12,"O=C(O)c1cc(O)ccc1O [2,5-Dihydroxybenzoic acid] (10 µM)",0
13,C=C(CCC=C(C)C)[C@H]1CC[C@]2(C)[C@@H]1[C@H](O)C[C@@H]1[C@@]3(C)CC[C@H](O[C@@H]4O[C@H](CO)[C@@H](O)[C@H](O)[C@H]4O[C@@H]4O[C@H](CO)[C@@H](O)[C@H](O)[C@H]4O)C(C)(C)[C@@H]3CC[C@]12C [Ginsenoside Rk1] (10 µM),0
14,CC(C)=CC[C@H](O)C1=CC(=O)c2c(O)ccc(O)c2C1=O [(-)-Alkannin] (2.5 µM),0
15,N#Cc1c(-c2ccccc2)cc(-c2cc(Br)ccc2O)[nH]c1=O (10 µM),0
16,CCn1c(-c2nonc2N)nc2cnc(Oc3cccc(NC(=O)c4ccc(OCCN5CCOCC5)cc4)c3)cc21 (10 µM),5
17,CO[C@H]1C[C@@H]2CC[C@@H](C)[C@@](O)(O2)C(=O)C(=O)N2CCCC[C@H]2C(=O)O[C@H]([C@H](C)C[C@@H]2CC[C@@H](O)[C@H](OC)C2)CC(=O)[C@H](C)/C=C(\C)[C@@H](O)[C@@H](OC)C(=O)[C@H](C)C[C@H](C)/C=C/C=C/C=C/1C [Rapamycin] (10 µM),0
18,CC(C)=CCC[C@](C)(O[C@@H]1O[C@H](CO)[C@@H](O)[C@H](O)[C@H]1O)[C@H]1CC[C@]2(C)[C@@H]1[C@H](O)C[C@@H]1[C@@]3(C)CC[C@H](O)C(C)(C)[C@@H]3[C@@H](O[C@@H]3O[C@H](CO)[C@@H](O)[C@H](O)[C@H]3O[C@@H]3O[C@@H](C)[C@H](O)[C@@H](O)[C@H]3O)C[C@]12C [Ginsenoside Re] (10 µM),0
19,Cn1c(=O)c(F)c(Nc2ccc(I)cc2F)c2c(=O)n(C[C@@H](O)CO)cnc21 (10 µM),0

# Target: BRAF (UniProt P15056)
# Assay: as above
# Conditions: K562; 2-18 h
row,Structure (SMILES),number of time points
1,NCc1ccc(Nc2ncc(F)c(Nc3ccccc3)n2)cc1 (10 µM),1
2,C=C(C)C(=O)Nc1cccc(-c2ncnc3[nH]cc(C(=O)OCC)c23)c1 (10 µM),0
3,CCOc1cc(C(=O)N2CCC(N3CCN(C)CC3)CC2)ccc1Nc1ncc2c(n1)N(C1CCCC1)c1ccccc1C(=O)N2C (10 µM),0
4,CCOc1ccc(C(=O)Nc2ncc([N+](=O)[O-])s2)cc1 (10 µM),0
5,CNC(=O)Nc1ccc(-c2cc(-c3ccnc(Nc4ccc(C)c(S(=O)(=O)N(C)C)c4)n3)ccn2)cc1 [hSMG-1 inhibitor 11e] (2.5 µM),0
6,CNC(=O)c1ccc(-c2cnc3cnc(C(=O)N(C)c4ccc(Cl)cc4)cn23)cc1 (2.5 µM),0
7,COc1cccc(-n2c(=O)[nH]c3cc(Cl)n(-c4ccc(-c5cccc(OC)c5O)cc4)c3c2=O)c1 (2.5 µM),0
8,O=C(Nc1cccnc1)c1cc(C(=O)c2c(F)cccc2Br)c[nH]1 (10 µM),0
9,CN(CC(=O)N(Cc1ccc(C2CCCCC2)cc1)c1ccc(C(=O)O)cc1)S(=O)(=O)c1c(F)c(F)c(F)c(F)c1F (2.5 µM),0
10,COc1c(NC(=O)C(=O)c2ccc(OCCN3CCOCC3)c3ccccc23)cc(C(C)(C)C)cc1NS(C)(=O)=O (2.5 µM),0
11,CC(C)CC1(O)CCN(C(=O)c2ccc(NS(=O)(=O)c3cccc4nccnc34)cc2)CC1 (10 µM),0
12,O=C(/C=C/c1ccc(O)c(O)c1)c1ccc(O[C@@H]2O[C@H](CO)[C@@H](O)[C@H](O)[C@H]2O)c(O)c1O [Marein] (10 µM),0
13,Cc1cc2cc(Nc3ccnc(Nc4ccc5[nH]c(C)cc5c4)n3)ccc2[nH]1 (2.5 µM),0
14,Cc1cc(Nc2cc(Cl)nc(Oc3ccc([N+](=O)[O-])cc3)n2)n[nH]1 [Autophinib] (2.5 µM),0
15,Fc1ccc(-c2nc(-c3ccccc3F)[nH]c2-c2ccncc2)cc1 (2.5 µM),0
16,OC(COc1ccc(C(F)(F)F)cc1)CN(Cc1ccccc1)Cc1ccccc1 (stereo not drawn) (2.5 µM),0
17,COc1ccc2[nH]cc(/C=C3\C(=O)Nc4ccc(NC(=O)CCN5CCCCC5)cc43)c2c1 (2.5 µM),0
18,CS(=O)(=O)c1ccc(-c2noc(C(F)(F)F)c2-c2ccccc2)cc1 (10 µM),0
19,COCCO[C@@H]1[C@H](O)[C@@H](CO)O[C@H]1n1cnc2c(=O)[nH]c(N)nc21 [2′-O-(2-Methoxyethyl)guanosine] (10 µM),0
20,Cn1cnc(-c2cc3nccc(Oc4ccc(NC(=S)NC(=O)Cc5ccccc5)cc4F)c3s2)c1 [MGCD-265 analog] (10 µM),3

row,Structure (SMILES),number of time points
1,Cc1noc(C)c1-c1ccc(-c2cc(C(N)=O)c(NC(N)=O)s2)c(O[C@H]2CCNC2)c1 (10 µM),0
2,Cc1c(CN2CCN(S(C)(=O)=O)CC2)sc2c(N3CCOCC3)nc(-c3cnc(N)nc3)nc12 (2.5 µM),3
3,CC(C)CN(CC(=O)N1CCN(CC(OCc2ccc3ccccc3c2)c2ccc(Cl)cc2Cl)CC1)CC(C)C (stereo not drawn) [LYN-1604 (dihydrochloride)] (2.5 µM),0
4,CC/C=C\C/C=C\C/C=C\CCCCCCCC(=O)O [α-Linolenic acid] (10 µM),0
5,Nc1ncnc2c1c(-c1ccc(Oc3ccccc3)cc1)nn2C1CCNCC1 [N-piperidine Ibrutinib (hydrochloride)] (10 µM),0
6,CC(C)NC(=O)N1CC[C@H](NC2=Nc3cc(F)ccc3N(CC(F)F)c3ccc(Cl)cc32)C1 (10 µM),0
7,O=C(Nc1cc(Oc2cc(F)c(NC(=O)C3(C(=O)Nc4ccc(F)cc4)CC3)cc2F)ccn1)C1CC1 [Altiratinib] (10 µM),5
8,COCCOc1ccc(-c2cn(-c3ccccc3)c3nc[nH]c(=O)c23)cc1 (10 µM),0
9,Cc1ccc2nc(NC(=O)CSc3nc4c(c(=O)n3-c3ccccc3)SCC4)sc2c1 (2 µM),0
10,C[C@]1(O)CCC[C@@H]1n1c(=O)c(C(F)F)cc2cnc(NC3CCN(S(C)(=O)=O)CC3)nc21 (10 µM),0
11,NC1(Cc2ccc(Cl)cc2)CCN(c2ncnc3[nH]ccc23)CC1 (10 µM),0
12,"O=C(O)c1cc(O)ccc1O [2,5-Dihydroxybenzoic acid] (10 µM)",0
13,C=C(CCC=C(C)C)[C@H]1CC[C@]2(C)[C@@H]1[C@H](O)C[C@@H]1[C@@]3(C)CC[C@H](O[C@@H]4O[C@H](CO)[C@@H](O)[C@H](O)[C@H]4O[C@@H]4O[C@H](CO)[C@@H](O)[C@H](O)[C@H]4O)C(C)(C)[C@@H]3CC[C@]12C [Ginsenoside Rk1] (10 µM),0
14,CC(C)=CC[C@H](O)C1=CC(=O)c2c(O)ccc(O)c2C1=O [(-)-Alkannin] (2.5 µM),0
15,N#Cc1c(-c2ccccc2)cc(-c2cc(Br)ccc2O)[nH]c1=O (10 µM),0
16,CCn1c(-c2nonc2N)nc2cnc(Oc3cccc(NC(=O)c4ccc(OCCN5CCOCC5)cc4)c3)cc21 (10 µM),0
17,CO[C@H]1C[C@@H]2CC[C@@H](C)[C@@](O)(O2)C(=O)C(=O)N2CCCC[C@H]2C(=O)O[C@H]([C@H](C)C[C@@H]2CC[C@@H](O)[C@H](OC)C2)CC(=O)[C@H](C)/C=C(\C)[C@@H](O)[C@@H](OC)C(=O)[C@H](C)C[C@H](C)/C=C/C=C/C=C/1C [Rapamycin] (10 µM),0
18,CC(C)=CCC[C@](C)(O[C@@H]1O[C@H](CO)[C@@H](O)[C@H](O)[C@H]1O)[C@H]1CC[C@]2(C)[C@@H]1[C@H](O)C[C@@H]1[C@@]3(C)CC[C@H](O)C(C)(C)[C@@H]3[C@@H](O[C@@H]3O[C@H](CO)[C@@H](O)[C@H](O)[C@H]3O[C@@H]3O[C@@H](C)[C@H](O)[C@@H](O)[C@H]3O)C[C@]12C [Ginsenoside Re] (10 µM),0
19,Cn1c(=O)c(F)c(Nc2ccc(I)cc2F)c2c(=O)n(C[C@@H](O)CO)cnc21 (10 µM),0
